Results from patent US5571793A (Bayer Aktiengesellschaft, priority 1993, dated 1996).

Experiment: general procedure: solution-phase peptide synthesis; bis-(2-oxo-3-oxazolidinyl)-phosphinic chloride, diisopropylethylamine

Row | Substance | step yield (coupling step) | step yield (late stage modification step)
1 | Bzl-L-MeLeu-D-Lac-L-MeLeu-D-PheLac-O^t Bu | 80% | 
2 | tert.-Butyl-N-methyl-L-phenylalanyl-D-lactyl-N-methyl-D-phenylalanyl-D-lactate |  | 82%
